This data set is described as follows: Residue/haze left behind on drying of antimicrobial lipid. Conditions: antimicrobial lipid in dried composition.

For the molecule `CCCCCCCCCCCC(=O)OCC(O)CO` (stereo not shown) [glycerol monolaurate], the “residue / haze left behind by drying” value is on record as “significant residue”.

Source of the values: US20150373970A1, “ANTIMICROBIAL COMPOSITIONS, WIPES, AND METHODS” (3M INNOVATIVE PROPERTIES COMPANY, priority 2013, published 2015).
